Where a protein sequence is shown, tags need not be part of it.
Biological target: T1, T-bet (Mus musculus) (UniProt Q9JKD8)
T1 sequence: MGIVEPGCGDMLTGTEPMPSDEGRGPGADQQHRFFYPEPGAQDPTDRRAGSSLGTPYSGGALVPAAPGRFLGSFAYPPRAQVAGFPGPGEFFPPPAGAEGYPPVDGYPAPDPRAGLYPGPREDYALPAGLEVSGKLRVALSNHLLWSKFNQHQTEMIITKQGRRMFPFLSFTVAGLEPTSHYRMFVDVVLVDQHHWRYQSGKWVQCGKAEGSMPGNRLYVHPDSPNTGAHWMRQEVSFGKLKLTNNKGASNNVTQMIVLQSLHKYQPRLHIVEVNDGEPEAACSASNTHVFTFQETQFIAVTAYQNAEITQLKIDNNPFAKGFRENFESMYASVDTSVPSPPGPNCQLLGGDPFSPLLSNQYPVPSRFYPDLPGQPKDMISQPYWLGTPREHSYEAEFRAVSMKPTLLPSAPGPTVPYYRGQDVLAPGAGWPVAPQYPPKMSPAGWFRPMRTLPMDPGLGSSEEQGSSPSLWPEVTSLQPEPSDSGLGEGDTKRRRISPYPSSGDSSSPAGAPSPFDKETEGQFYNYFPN
Assay: activity in cells
Details: transactivation in Jurkat, increased by PMA/ionomycin; exact multimer sequence not given; protein in cells; protein details: pCDNA expression in Jurkat or …; only the site is given

AATTTCACACCTAGGTGTGAAATT (double strand)
activity on this sequence: active

Source: patent US7393944
